According to article PMC9122598, “NASP maintains histone H3–H4 homeostasis through two distinct H3 binding modes” (Nucleic Acids Research, 2022):
No constants are given. Whether binding was seen depends on the method and setting. For some of these results: In cells and extracts the contact can be indirect. Some binding calls cover weakened binding; strength is not graded here.

Amino acid sequences for entries named in this document (tags omitted).
UniProt Q9NVP2: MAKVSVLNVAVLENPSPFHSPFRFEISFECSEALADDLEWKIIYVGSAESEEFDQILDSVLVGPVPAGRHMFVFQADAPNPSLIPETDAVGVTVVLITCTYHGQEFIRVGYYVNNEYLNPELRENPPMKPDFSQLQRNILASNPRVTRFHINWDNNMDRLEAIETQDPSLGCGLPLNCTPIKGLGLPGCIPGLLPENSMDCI
UniProt O14929: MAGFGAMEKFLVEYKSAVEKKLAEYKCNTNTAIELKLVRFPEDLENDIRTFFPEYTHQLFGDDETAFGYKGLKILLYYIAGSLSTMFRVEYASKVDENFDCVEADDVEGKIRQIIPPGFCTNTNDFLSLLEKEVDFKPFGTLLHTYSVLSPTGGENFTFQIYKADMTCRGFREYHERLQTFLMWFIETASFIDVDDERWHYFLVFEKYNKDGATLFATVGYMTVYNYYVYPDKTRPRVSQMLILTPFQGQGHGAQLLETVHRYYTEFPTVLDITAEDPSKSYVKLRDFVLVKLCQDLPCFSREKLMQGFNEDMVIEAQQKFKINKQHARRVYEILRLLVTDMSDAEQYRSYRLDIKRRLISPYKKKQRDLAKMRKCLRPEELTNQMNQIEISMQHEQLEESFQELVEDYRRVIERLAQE

Key:
[1] = target: sNASP-TwinStrep-HA E177A W180A D181A (human) (UniProt P49321); experiment: co-IP; sNASP-Strep-HA captured on MagStrep beads from soluble extracts of doxycycline-induced HeLa S3, washes 150 mM NaCl, biotin elution; western blot
[2] = target: budding yeast Hif1p (Saccharomyces cerevisiae) (UniProt Q12373); experiment: ITC; Hif1p titrated with the H3 αN or H3 α3 peptide; performed in the same way as for sNASP; both purified
[3] = target: sNASP-FLAG-Myc (wt) (human) (UniProt P49321); experiment: co-IP; sNASP-FLAG-Myc precipitated with anti-Flag M2 beads from soluble extracts (300 mM NaCl, 0.05% NP40) of transiently transfected HeLa S3, washes 150 mM NaCl; western blot
[4] = target: sNASPc 6E monomer (V265E I272E L282E V286E I300E L307E) (human) (UniProt P49321); experiment: SEC-MALS; single purified protein on Superdex 200 Increase 10/300 GL; 20 mM Tris pH 7.5, 0.5 M NaCl; room temperature; both purified
[5] = target: sNASPc V265E I272E L282E V286E I300E L307E (human) (UniProt P49321); experiment: SEC-MALS; purified monomer-peak fraction of sNASPc, and the 6E mutant, […], Superdex 200 Increase 10/300 GL, 20 mM Tris pH 7.5, 0.5 M NaCl, room temperature; both purified
[6] = target: sNASPc V265E I272E L282E V286E I300E L307E (human) (UniProt P49321); experiment: SEC; gel filtration at purification, HiLoad 16/600 Superdex 200, 20 mM Tris pH 7.5, 0.5 M NaCl; sNASPc peaks re-run on Superdex 200 Increase in 50 mM Tris pH 7.5, 0.2 M NaCl; both purified

ASF1b (endogenous) (from UniProt Q9NVP2 1-202)
binding [1]: no binding

H3 α3 (a.a. 116–135) peptide (from UniProt P84243 117-136)
binding [2]: no binding

HAT1 (endogenous) (from UniProt O14929 1-419) (enzyme)
binding [1]: no binding

endogenous tNASP (from UniProt P49321-1 1-788)
binding [3]: binds

sNASPc 6E monomer (V265E I272E L282E V286E I300E L307E) (from UniProt P49321-2 30-340) (domain or fragment)
binding [4]: no binding (tested: 1.5 mg/mL, 100 μL injected)

sNASPc V265E I272E L282E V286E I300E L307E (from UniProt P49321-2 30-340) (domain or fragment)
binding [5]: no binding (tested: 1.5 mg/mL) | binding [6]: no binding
